Among the data in publication PMC4299599, “Quantification of cytosolic interactions identifies Ede1 oligomers as key organizers of endocytosis” (Molecular Systems Biology, 2014) are binding values, retold here.

These are yes or no findings as the source states them, for the method shown. For part of these data: Tags and fused reporters may be left off the sequences shown.

Experiment [1] deals with ede1Δ591–1381 (myeGFP / mCherry fusions) (S. cerevisiae) (UniProt P34216). In words: FCS molecular brightness (counts per particle per second); living yeast cells, cytoplasm; brightness of GFP-tagged particles compared with 3myeGFP and Ent2-3myeGFP (monomers) or with wild-type Ede1; average of all particles.
Experiment [2] has the same target. The experiment in a line: fluorescence cross-correlation spectroscopy (FCCS); self-interaction: living diploid yeast cells with one allele fused to (3)myeGFP and one to (3)mCherry, cytoplasm; apparent (effective) KD, to be taken as the upper limit since complexes of one colour are not seen.
A further experiment addresses T1, Ede1 (S. cerevisiae) (UniProt P34216).
T1 sequence: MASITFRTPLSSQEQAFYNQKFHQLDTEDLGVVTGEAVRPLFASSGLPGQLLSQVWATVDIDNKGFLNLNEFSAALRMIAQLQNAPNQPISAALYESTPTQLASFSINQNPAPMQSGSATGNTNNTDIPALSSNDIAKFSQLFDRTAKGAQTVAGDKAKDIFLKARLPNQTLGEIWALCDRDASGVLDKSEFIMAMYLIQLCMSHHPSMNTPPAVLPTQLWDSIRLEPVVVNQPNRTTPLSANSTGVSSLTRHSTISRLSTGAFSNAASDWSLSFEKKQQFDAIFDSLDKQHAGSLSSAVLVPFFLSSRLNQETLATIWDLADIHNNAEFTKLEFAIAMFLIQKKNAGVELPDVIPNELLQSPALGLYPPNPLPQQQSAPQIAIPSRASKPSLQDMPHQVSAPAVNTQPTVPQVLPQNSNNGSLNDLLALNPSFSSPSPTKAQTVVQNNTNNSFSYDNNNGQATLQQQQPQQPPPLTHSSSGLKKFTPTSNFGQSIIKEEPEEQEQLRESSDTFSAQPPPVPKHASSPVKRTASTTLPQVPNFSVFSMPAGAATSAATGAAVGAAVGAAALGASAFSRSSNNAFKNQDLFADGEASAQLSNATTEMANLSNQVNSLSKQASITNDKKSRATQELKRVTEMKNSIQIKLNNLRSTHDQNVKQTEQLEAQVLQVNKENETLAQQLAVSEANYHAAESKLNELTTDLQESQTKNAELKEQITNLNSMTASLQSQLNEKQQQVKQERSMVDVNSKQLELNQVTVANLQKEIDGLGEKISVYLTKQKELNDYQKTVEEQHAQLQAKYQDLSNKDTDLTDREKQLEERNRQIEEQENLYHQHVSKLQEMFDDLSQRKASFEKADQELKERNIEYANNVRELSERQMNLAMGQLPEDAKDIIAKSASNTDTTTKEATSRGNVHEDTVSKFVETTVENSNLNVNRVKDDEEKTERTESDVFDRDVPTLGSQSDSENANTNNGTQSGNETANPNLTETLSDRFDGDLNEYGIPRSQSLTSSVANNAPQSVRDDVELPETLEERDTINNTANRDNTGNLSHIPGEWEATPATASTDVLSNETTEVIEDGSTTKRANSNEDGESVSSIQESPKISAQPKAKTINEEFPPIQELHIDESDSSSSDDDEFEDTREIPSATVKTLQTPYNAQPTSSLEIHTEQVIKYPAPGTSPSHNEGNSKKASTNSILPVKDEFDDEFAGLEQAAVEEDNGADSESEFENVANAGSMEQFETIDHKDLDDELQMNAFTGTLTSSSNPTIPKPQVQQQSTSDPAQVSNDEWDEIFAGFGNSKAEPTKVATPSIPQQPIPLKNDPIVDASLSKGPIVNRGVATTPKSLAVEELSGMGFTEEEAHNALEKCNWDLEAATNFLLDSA
The experiment in a line: condition: 1000 nM (only Kdeff-values < 1000 nM are shown); fluorescence cross-correlation spectroscopy (FCCS); in the cytoplasm of living yeast cells; first-named protein green (3myeGFP or 1myeGFP; eGFP for Don1), second red (3mCherry); self-interaction in diploid strains with one allele of each colour; apparent or effective KD (Kdeff) from single-cell measurements; only Kdeff values < 1000 nM are shown; values for self-interactions are upper limits.

Experiment [3] deals with T2, Apl3 (S. cerevisiae, UniProt P38065 1-1025).
T2 construct: Apl3, subunit of the AP2 complex, S. cerevisiae; also called Apl3-3myeGFP; Apl3-3mCherry; source: chromosomally tagged at the endogenous locus, in the cytoplasm of living S. cerevisiae cells
T2 sequence (looked up): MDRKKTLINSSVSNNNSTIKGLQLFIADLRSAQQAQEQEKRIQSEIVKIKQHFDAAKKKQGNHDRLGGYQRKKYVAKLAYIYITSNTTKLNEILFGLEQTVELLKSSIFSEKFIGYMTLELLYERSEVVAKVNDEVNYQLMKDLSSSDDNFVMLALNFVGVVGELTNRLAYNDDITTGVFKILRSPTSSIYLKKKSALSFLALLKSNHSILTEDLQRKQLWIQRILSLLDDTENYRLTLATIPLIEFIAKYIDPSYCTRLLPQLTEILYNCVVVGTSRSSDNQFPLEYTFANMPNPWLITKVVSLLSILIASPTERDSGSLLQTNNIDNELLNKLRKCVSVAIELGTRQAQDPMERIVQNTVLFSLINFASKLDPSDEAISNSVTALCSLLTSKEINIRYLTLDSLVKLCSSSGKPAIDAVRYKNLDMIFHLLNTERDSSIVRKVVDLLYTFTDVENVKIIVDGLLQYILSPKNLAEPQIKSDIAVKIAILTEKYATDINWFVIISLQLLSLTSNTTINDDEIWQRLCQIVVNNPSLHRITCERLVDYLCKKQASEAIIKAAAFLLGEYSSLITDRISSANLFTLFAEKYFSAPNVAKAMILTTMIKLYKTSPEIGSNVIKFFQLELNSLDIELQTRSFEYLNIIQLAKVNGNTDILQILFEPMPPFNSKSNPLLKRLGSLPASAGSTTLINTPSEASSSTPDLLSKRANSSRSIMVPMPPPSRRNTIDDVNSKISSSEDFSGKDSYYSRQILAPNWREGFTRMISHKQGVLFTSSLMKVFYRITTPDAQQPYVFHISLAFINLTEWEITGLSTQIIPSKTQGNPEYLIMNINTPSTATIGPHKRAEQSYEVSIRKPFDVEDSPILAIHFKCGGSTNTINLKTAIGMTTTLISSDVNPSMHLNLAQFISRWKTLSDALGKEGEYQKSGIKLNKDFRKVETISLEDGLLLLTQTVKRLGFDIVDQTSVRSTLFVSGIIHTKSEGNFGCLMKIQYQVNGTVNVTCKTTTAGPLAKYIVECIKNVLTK
The description is as above.

Experiment [4] deals with T2, Apl3. In words: condition: detection range of FCCS: apparent KD up to ~1 μM; fluorescence cross-correlation spectroscopy (FCCS); self-interaction: living diploid yeast cells with one allele fused to (3)myeGFP and one to (3)mCherry, cytoplasm; apparent (effective) KD, to be taken as the upper limit since complexes of one colour are not seen.
For another experiment, the target named is T3, Ste11-3mCherry (S. cerevisiae, UniProt P23561 1-717).
T3 construct: Ste11, S. cerevisiae; negative control of FCCS; source: S. cerevisiae strain Don1-eGFP, Ste11-3mCherry, in living cells
T3 sequence (looked up): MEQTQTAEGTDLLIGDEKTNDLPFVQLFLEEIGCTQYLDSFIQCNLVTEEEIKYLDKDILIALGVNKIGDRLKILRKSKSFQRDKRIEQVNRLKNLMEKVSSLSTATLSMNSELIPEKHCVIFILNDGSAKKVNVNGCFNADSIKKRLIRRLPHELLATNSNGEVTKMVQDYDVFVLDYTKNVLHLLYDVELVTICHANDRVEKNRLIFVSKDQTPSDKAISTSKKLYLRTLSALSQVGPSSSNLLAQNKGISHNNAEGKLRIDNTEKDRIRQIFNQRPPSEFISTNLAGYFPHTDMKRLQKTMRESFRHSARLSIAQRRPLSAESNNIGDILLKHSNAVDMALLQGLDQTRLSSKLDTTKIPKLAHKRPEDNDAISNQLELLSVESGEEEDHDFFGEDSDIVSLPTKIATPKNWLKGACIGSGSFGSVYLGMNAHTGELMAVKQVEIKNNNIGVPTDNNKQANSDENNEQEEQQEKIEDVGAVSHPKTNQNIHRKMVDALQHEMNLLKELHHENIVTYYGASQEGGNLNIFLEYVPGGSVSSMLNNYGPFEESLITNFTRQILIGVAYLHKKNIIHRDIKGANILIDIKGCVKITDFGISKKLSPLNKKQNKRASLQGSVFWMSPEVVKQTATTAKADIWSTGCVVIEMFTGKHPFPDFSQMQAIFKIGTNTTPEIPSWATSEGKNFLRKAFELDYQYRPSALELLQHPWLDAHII
In words: fluorescence cross-correlation spectroscopy (FCCS); living yeast cells, observation volume in the cytoplasm; one protein tagged with (3)myeGFP/eGFP and the other with 3mCherry in the same strain; apparent (effective) KD; interactions up to ~1 μM detectable.

B1: ede1Δ591–1381 (myeGFP / mCherry fusions) (domain or fragment, S. cerevisiae, UniProt P34216 1-590, looked up)
chain: MASITFRTPLSSQEQAFYNQKFHQLDTEDLGVVTGEAVRPLFASSGLPGQLLSQVWATVDIDNKGFLNLNEFSAALRMIAQLQNAPNQPISAALYESTPTQLASFSINQNPAPMQSGSATGNTNNTDIPALSSNDIAKFSQLFDRTAKGAQTVAGDKAKDIFLKARLPNQTLGEIWALCDRDASGVLDKSEFIMAMYLIQLCMSHHPSMNTPPAVLPTQLWDSIRLEPVVVNQPNRTTPLSANSTGVSSLTRHSTISRLSTGAFSNAASDWSLSFEKKQQFDAIFDSLDKQHAGSLSSAVLVPFFLSSRLNQETLATIWDLADIHNNAEFTKLEFAIAMFLIQKKNAGVELPDVIPNELLQSPALGLYPPNPLPQQQSAPQIAIPSRASKPSLQDMPHQVSAPAVNTQPTVPQVLPQNSNNGSLNDLLALNPSFSSPSPTKAQTVVQNNTNNSFSYDNNNGQATLQQQQPQQPPPLTHSSSGLKKFTPTSNFGQSIIKEEPEEQEQLRESSDTFSAQPPPVPKHASSPVKRTASTTLPQVPNFSVFSMPAGAATSAATGAAVGAAVGAAALGASAFSRSSNNAFKNQDLF
notes: 1myeGFP fusion for FCS; diploid with one myeGFP and one mCherry allele for FCCS; Each copy carries one tag; also called ede1^Δ591–1391; source: S. cerevisiae, endogenously expressed truncation mutant, in living cells; not shown: myeGFP, C-terminal, kept; mCherry, C-terminal, kept
With B1, the figures for the binding entry in experiment [1] and in experiment [2] were “no binding” and “no binding (tested: > 1 μM)”, respectively.

B2: Apl3 (protein, UniProt P38065 1-1025)
chain: T2 sequence (looked up)
With B2, the binding entry with Ede1 (S. cerevisiae), with Apl3 [3] and with Apl3 [4] was “no binding” throughout.

B3: Don1-eGFP (natural protein, S. cerevisiae, UniProt Q05610 1-365, looked up)
chain: MGKKNRKGKENNAAKTSFLKVENIKNTNSGLELPSQDYTNVEEKESSPKTDFPLITKEHVNTKTDSNILDYPTIGDLVSSVEKLCVLKELKIAFPEVDDTLIKAILIASQGVLEPAFNSLLYYSSPEENTDFALPMKPISVEDYSKINVSEILQREIFDDIEDEFSGQGINGSMVISKIESELSSLAEHIGNISTPGSNREVAESTRNVAVAEGHNTILSNEDSILKGKEKGKEEEKEKGEEKGVNSLKGAAVKVVAKSLKNNRIPVTVKRNEPSNNLFDVLNCDESEEEEEQDVETNTSNQERKNQGGNTEVPEAQRDSADRLPAKDDGGYKSAFGTDSCGLFAADAKDEKKQVHPSRQELSFT
notes: Don1, S. cerevisiae; negative control of FCCS; source: S. cerevisiae strain Don1-eGFP, Ste11-3mCherry, in living cells
With B3, in the experiment with Ste11-3mCherry, the binding result is listed as “no binding (tested: > 1 μM)”.
